Test results from patent US20030208060A1.
No constants are given. Whether binding was seen depends on the method and setting. Some binding calls cover weakened binding; strength is not graded here. Tags and fused reporters may be left off the sequences shown.

Sequences of proteins named here, by UniProt entry; tags and fusion partners are left off. Residues count along the entry.
UniProt E9Q414, residues 28-2178: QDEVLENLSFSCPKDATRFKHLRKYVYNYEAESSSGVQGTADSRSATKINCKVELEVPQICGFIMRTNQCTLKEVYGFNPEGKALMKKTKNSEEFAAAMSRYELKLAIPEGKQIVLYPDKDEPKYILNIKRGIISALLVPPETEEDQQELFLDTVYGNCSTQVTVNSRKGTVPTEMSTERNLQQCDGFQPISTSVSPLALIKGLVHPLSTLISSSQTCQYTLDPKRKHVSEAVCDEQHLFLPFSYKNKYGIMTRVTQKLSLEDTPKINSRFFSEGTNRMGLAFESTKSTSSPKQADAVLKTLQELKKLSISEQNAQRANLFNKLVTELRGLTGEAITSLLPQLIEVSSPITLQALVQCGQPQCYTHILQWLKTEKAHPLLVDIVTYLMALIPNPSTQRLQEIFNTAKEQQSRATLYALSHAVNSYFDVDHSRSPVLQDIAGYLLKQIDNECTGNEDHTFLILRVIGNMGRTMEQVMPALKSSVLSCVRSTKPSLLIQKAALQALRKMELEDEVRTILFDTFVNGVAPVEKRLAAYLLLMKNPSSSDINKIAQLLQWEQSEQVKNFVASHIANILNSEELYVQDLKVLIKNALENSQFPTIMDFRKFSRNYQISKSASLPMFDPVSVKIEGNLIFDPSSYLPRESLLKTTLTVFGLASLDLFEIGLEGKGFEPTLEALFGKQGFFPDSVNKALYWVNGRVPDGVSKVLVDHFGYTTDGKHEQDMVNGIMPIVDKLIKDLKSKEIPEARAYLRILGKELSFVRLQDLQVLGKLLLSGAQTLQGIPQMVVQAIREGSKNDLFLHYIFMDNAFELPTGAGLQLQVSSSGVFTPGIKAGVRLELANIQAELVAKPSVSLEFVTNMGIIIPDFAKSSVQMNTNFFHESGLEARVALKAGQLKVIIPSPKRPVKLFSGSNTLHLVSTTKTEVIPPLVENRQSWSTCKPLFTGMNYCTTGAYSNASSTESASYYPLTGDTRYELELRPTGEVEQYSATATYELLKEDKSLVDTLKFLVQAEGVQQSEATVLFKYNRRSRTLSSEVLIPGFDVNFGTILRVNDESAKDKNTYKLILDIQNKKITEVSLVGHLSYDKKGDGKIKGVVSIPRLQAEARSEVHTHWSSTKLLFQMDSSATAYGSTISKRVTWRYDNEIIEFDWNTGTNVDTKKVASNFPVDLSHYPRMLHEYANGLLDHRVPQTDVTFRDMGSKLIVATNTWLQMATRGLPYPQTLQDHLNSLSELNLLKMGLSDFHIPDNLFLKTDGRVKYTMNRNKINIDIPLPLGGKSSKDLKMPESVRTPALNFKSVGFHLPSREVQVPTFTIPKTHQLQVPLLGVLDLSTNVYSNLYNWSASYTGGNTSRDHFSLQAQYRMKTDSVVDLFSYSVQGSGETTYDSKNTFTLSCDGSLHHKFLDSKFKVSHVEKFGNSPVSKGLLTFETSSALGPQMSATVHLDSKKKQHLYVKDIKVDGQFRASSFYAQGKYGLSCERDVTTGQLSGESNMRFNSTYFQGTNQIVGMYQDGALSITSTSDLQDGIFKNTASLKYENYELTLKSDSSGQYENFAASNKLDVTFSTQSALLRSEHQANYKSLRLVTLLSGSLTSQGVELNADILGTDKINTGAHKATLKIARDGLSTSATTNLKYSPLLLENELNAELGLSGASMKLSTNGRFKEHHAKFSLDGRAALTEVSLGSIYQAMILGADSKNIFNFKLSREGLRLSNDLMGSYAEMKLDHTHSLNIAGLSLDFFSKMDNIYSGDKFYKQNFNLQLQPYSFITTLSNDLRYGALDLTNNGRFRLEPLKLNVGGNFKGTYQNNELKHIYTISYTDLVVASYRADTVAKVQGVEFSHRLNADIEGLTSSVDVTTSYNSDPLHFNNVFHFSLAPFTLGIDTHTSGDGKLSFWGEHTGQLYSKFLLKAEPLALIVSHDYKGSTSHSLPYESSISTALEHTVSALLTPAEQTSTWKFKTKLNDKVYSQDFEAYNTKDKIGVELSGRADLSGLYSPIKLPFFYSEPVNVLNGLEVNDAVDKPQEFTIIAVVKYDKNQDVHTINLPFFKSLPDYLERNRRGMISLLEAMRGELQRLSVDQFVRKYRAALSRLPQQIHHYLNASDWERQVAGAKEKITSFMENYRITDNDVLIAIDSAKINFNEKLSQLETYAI
UniProt P04114, residues 28-2179: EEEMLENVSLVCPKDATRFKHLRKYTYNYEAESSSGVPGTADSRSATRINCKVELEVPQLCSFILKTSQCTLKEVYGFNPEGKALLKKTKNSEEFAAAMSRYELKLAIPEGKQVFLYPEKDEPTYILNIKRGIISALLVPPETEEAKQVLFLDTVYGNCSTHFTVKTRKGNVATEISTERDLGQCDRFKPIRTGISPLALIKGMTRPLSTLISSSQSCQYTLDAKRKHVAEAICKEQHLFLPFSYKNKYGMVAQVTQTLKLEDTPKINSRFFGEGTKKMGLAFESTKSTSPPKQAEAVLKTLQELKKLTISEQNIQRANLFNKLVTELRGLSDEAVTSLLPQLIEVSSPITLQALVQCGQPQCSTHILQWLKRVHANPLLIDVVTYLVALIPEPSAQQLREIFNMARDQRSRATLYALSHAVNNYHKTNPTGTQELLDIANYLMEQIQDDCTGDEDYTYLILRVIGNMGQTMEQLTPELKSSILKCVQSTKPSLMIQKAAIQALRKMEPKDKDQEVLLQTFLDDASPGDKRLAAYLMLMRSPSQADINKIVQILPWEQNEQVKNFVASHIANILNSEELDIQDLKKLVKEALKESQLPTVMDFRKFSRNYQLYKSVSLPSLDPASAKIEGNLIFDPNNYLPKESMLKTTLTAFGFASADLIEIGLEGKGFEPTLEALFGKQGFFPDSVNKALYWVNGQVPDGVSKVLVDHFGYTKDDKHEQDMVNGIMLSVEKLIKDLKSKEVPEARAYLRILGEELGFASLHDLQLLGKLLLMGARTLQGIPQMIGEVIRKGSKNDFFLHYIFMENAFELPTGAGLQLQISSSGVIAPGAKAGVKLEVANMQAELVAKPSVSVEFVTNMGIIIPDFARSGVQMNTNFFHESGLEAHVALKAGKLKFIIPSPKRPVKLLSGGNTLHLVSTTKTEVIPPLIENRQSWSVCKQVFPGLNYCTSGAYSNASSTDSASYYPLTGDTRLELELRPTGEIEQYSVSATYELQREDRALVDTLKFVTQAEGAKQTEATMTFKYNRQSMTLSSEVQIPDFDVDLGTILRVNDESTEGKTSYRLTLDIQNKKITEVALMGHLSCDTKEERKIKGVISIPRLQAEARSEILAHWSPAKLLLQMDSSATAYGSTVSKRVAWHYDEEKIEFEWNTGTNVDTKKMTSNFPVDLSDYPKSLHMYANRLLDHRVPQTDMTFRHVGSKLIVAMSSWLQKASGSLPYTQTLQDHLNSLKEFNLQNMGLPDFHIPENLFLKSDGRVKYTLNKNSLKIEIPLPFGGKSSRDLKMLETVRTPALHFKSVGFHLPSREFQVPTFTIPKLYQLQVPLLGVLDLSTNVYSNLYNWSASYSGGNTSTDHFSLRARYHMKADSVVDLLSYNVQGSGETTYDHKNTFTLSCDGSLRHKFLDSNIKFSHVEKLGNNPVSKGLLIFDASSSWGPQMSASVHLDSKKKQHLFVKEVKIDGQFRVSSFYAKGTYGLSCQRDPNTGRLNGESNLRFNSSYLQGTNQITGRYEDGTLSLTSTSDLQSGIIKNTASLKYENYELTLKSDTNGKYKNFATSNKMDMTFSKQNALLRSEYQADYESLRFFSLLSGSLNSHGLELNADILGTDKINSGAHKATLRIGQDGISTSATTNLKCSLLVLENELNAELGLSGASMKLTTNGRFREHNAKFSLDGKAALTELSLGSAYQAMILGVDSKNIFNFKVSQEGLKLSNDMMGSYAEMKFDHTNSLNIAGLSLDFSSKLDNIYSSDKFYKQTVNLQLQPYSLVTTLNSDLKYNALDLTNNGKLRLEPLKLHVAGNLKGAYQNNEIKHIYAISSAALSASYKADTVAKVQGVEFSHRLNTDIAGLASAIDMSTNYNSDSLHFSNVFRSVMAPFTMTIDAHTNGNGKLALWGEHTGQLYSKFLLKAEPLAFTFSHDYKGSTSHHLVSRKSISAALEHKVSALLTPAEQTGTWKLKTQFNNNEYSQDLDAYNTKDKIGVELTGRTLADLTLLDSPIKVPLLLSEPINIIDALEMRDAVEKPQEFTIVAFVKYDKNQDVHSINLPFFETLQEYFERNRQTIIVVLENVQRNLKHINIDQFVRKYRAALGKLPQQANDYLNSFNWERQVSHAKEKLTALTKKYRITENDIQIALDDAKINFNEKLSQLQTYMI

Molecular target: T1, MBP200 (membrane binding protein of ~200 kDa; human monocyte-macrophage apoB48 receptor, apoB48R) (human) (UniProt Q0VD83)
T1 sequence: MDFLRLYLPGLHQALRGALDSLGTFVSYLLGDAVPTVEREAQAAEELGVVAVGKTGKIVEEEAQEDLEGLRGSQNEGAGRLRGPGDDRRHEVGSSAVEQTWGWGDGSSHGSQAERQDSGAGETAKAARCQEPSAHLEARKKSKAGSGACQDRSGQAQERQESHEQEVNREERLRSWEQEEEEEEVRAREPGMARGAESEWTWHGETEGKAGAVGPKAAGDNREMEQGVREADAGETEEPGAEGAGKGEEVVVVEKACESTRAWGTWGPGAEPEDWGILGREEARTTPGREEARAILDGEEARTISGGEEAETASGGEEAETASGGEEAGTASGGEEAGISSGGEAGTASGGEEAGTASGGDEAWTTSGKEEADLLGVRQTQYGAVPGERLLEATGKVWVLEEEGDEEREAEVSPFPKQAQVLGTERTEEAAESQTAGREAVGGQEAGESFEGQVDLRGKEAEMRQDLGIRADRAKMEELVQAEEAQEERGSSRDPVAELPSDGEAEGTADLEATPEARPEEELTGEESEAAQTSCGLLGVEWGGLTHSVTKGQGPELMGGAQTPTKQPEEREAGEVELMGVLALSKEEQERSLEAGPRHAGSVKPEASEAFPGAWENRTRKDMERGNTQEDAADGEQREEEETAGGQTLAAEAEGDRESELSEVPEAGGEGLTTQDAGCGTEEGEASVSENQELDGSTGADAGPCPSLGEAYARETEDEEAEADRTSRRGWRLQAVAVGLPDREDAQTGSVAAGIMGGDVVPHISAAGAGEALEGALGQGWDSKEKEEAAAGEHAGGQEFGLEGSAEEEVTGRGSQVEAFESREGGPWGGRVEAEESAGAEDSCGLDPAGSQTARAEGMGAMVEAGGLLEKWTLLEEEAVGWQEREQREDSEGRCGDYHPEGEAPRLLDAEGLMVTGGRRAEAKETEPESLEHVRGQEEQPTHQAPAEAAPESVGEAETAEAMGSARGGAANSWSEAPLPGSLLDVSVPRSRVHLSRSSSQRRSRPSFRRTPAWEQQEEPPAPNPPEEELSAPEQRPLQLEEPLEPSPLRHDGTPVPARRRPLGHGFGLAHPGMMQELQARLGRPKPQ
Experiment: ligand blot

Row | binding | Substance
1 | binds | apoE-free B-VLDL from apoE knockout mice (from UniProt E9Q414 28-2178)
2 | binds | plasma chylomicrons Sf>400 (from UniProt P04114 28-2179)
